# Test results from PubChem BioAssay AID1347076 (National Center for Advancing Translational Sciences (NCATS), 2019).
# The campaign covered roughly 400,000 compounds. About 13,000 (3.2%) were called active. Inconclusive results, whose numbers are uncertain, are shown with a selection of clear calls. The call rests on the fitted dose curve; in most records, active means well fitted cell-killing curve with a large enough effect; inconclusive means small, poorly fitted or top-dose-only effect, or effect the other way; inactive means flat fitted curve, though single readings scatter. Where the call is inconclusive, the potency comes from a doubtful curve fit.
# Assay: qHTS assay for MDR1-selective chemotherapeutics: Primary screen using the drug-selected MDR subline cells KB-V1; further: nearly all actives have a fitted effect of over 60% in size
# Conditions: KB-V1 MDR cells viability, CellTiter-Glo, 72 h; activity change, negative = cytotoxicity: at 46.1 µM (top of the series)
# Outline: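 Luminescent ATP read-out (CellTiter-Glo, 10 min) measures survival of drug-selected KB-V1 MDR cells after 72 h, 37 degrees C compound exposure. Medium: phenol-red-free DMEM, 10% FBS. Values from fitted concentration-response curves.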
# On the % scale 0 is the no-effect control and ±100 the full control effect; potency means the concentration at half of the fitted maximal effect.
Structure (SMILES),Potency,"activity change, negative = cytotoxicity"
CCCC(=O)Nc1ccc(-c2csc(-c3cccnc3)n2)cc1,"inconclusive: 23.1 µM [cytotoxic, single point]",
c1ccc2c(c1)OCCOCCOCCOCCOCCOc1ccccc1OCCOCCOCCO2,active: 5.17 µM,
CCN1C(=O)C(CC(=O)Nc2ccc(Br)cc2)N(CCCc2ccccc2)C1=S (centres undefined),"inconclusive: 23.1 µM [cytotoxic, single point]",
COc1ccc(N(CC(=O)N/N=C/c2cccs2)S(=O)(=O)c2ccccc2)cc1,"inconclusive: 16.4 µM [cytotoxic, single point]",
O=C1CSC2(C(=O)N(Cc3ccccc3F)c3ccccc32)N1c1ccc(F)cc1 (centres undefined),active: 16.4 µM,
COc1ccc(S(=O)(=O)N2CCCCC2c2cc(C(=O)NCc3cccnc3)no2)cc1 (centres undefined),,inactive: 1.13%
Cc1cccc(S(=O)(=O)NC(=O)C2(C)CCN2C(=O)c2cccc(F)c2)c1 (centres undefined),,inactive: 1.89%
CCOC(=O)C1=C(C)C(c2ccc(OC)cc2)NC(=O)N1 (centres undefined),,inactive: 4.42%
COc1ccc(-c2cc(C(=O)Nc3cccnc3Cl)no2)cc1OC,"inconclusive: 0.0073 µM [rising, full curve]",
O=C(NCCCN1CCOCC1)c1cccc(S(=O)(=O)N2CCN(c3ccccc3)CC2)c1,,inactive: 0%
CCSc1nnc2n(-c3cccc(C)c3)c(=O)c3c4c(sc3n12)CCCC4,"inconclusive: 23.1 µM [cytotoxic, partial curve]",
Cc1cc2nn(-c3ccccc3)nc2cc1NC(=O)c1cccc2c(Cl)cccc12,"inconclusive: 29.1 µM [rising, single point]",
CC[n+]1c(/C=C/c2ccc(N(C)C)cc2)ccc2ccccc21,"inconclusive: 3.26 µM [cytotoxic, full curve]",
COc1ccc(C2COc3cc(O)ccc3C2)c(OC)c1O (centres undefined),"inconclusive: 29.1 µM [cytotoxic, single point]",
CCOc1ccc2[nH]c(C)cc(=O)c2c1,,inconclusive: 88.7%
COc1ccc(S(=O)(=O)N2CCc3ccccc32)cc1C(=O)NCc1ccco1,"inconclusive: 25.9 µM [cytotoxic, single point]",
CN1CCN(c2nc(-c3ccc(Cl)cc3Cl)nc3ccccc23)CC1,"inconclusive: 18.4 µM [cytotoxic, single point]",
CC(=O)OC1CCC2(C)C(CCC3C4CC=C(C(C)=O)C4(C)OC(=O)CC32)C1 (centres undefined),"inconclusive: 18.4 µM [cytotoxic, single point]",
CC1Cc2ccccc2N1C(=O)COC(=O)c1cccc(Br)c1 (centres undefined),"inconclusive: 20.6 µM [rising, partial curve]",
Cc1ccc(C2(c3ccccc3)NC(=O)N(CC(=O)NC3CCCCC3)C2=O)cc1C (centres undefined),"inconclusive: 14.6 µM [cytotoxic, partial curve, poor fit]",
C=CCOc1ccc(/C=N/N2C(=O)C(CC(=O)Nc3ccc(F)cc3F)SC2=NC)cc1 (centres undefined),"inconclusive: 29.1 µM [cytotoxic, single point]",
Cc1cc(C2=NNC(=NC3CCCCC3)SC2)c(C)n1-c1c(C)n(C)n(-c2ccccc2)c1=O,"inconclusive: 18.4 µM [rising, single point]",

Structure (SMILES),Potency,"activity change, negative = cytotoxicity"
Cc1cc(S(=O)(=O)N(Cc2cccs2)Cc2ccccc2F)ccc1-n1cnnn1,"inconclusive: 25.9 µM [cytotoxic, single point]",
O=C(NCCc1ccc2c(c1)OCCO2)c1cc2ccccc2o1,"inconclusive: 18.4 µM [cytotoxic, single point]",
CC(=O)Nc1ccccc1NC(=O)c1cc(C)ccc1C,,inactive: 1.33%
Cc1ccc2c(c1)/C(=C/c1ccccc1C)C(=O)N2,,inconclusive: -18.4%
Cc1ccc(NC(=S)N2CCSC2c2cccs2)cc1 (centres undefined),,inactive: -14.4%
C/C(CC(=O)Nc1cc(C)ccn1)=N\NC(=O)c1cccc(F)c1,"inconclusive: 0.0037 µM [cytotoxic, full curve, poor fit]",
Cc1cc2ccccn2c1C(=O)c1cccc([N+](=O)[O-])c1,"inconclusive: 23.1 µM [cytotoxic, single point]",
Cn1c(-c2ccccc2)cnc1NCc1ccc(F)cc1,,inactive: -9.82%
COc1ccc(Cc2c(-c3cccc(Br)c3)nc3cc(C)c(Br)c(C)n23)c(C)c1,"inconclusive: 16.4 µM [cytotoxic, partial curve, poor fit]",
O=C(NCCc1csc2nc(-c3ccccc3F)nn12)c1ccco1,,inactive: -5.44%
c1ccc2c(CSc3nnc(-c4ccncc4)o3)cccc2c1,active: 14.6 µM,
COCCCn1c(=O)/c(=C/c2ccccc2OC(C)C)s/c1=C(\C#N)C(=O)Nc1ccc(C(=O)O)cc1,,inactive: -5.04%
COc1ccc(NC(=O)COC(=O)C2CCN(S(=O)(=O)c3cccs3)CC2)cc1OC,"inconclusive: 0.0517 µM [rising, full curve]",
CCN(CC)S(=O)(=O)c1ccc(N2CCN(S(=O)(=O)c3ccccc3)CC2)nc1,,inactive: -24.4%
O=S(=O)(c1ccc(F)cc1)N1CCN(C(=S)NCc2ccco2)CC1,"inconclusive: 20.6 µM [cytotoxic, partial curve]",
COc1cc(OC)c(OC)cc1/C=C1\CCC/C(=C\c2cc(OC)c(OC)cc2OC)C1=O,"inconclusive: 20.6 µM [cytotoxic, single point]",
O=C(NCc1cccc(Cl)c1)C1=CC=CN2CCS(=O)(=O)N=C12,"inconclusive: 29.1 µM [rising, single point]",
Cc1sc2ncnc(N(C)Cc3ccco3)c2c1C,"inconclusive: 20.6 µM [cytotoxic, single point]",
COc1ccc(CC(=O)Nc2cccc(-c3cn4ccccc4n3)c2)cc1,"inconclusive: 9.2 µM [cytotoxic, partial curve, poor fit]",
CC1CCN(C(=O)CSc2nc3c(c(=O)n2C)SC(C)C3)CC1 (centres undefined),"inconclusive: 9.2 µM [cytotoxic, partial curve]",
CCOC(=O)c1ccc(Nc2nc3ccccc3nc2NS(=O)(=O)c2ccc(Cl)cc2)cc1,,inactive: -0.831%
CCOc1ccccc1NC(=O)c1ccc(Cl)c(NC(=O)CC(c2ccccc2)c2ccccc2)c1,"inconclusive: 0.651 µM [cytotoxic, full curve, poor fit]",

# Structures listed so far containing an aryl thioether with sulfur outside any ring (three):
Structure (SMILES),Potency,"activity change, negative = cytotoxicity"
CCSc1nnc2n(-c3cccc(C)c3)c(=O)c3c4c(sc3n12)CCCC4,"inconclusive: 23.1 µM [cytotoxic, partial curve]",
c1ccc2c(CSc3nnc(-c4ccncc4)o3)cccc2c1,active: 14.6 µM,
CC1CCN(C(=O)CSc2nc3c(c(=O)n2C)SC(C)C3)CC1 (centres undefined),"inconclusive: 9.2 µM [cytotoxic, partial curve]",
